# Data source: PubChem BioAssay AID1159584 (Peter MacCallum Cancer Centre, 2016)
# Purpose: 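Genes whose loss is lethal only together with E-cadherin loss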 (primary screen)
# System: human MCF10A breast epithelial cells, parental and CDH1-null
# Reagents: siRNA against human genes
# Read-out: 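Cell viability by CellTiter-Glo ATP luminescence, each line scaled to the mean of mock wells across plates, then CDH1-null over parental ratio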
# Direction: CDH1-null / parental viability ratio: higher = CDH1-null cells survive relatively better than parental
# Shown is a random part of about 18,000 reagents tested. The numbers tell different reagents against one gene apart. Further read-outs or replicates are left out here. The record does not give: the amount of reagent, the time to read-out.
gene,reagent no.,CDH1-null / parental viability ratio
DESI1,1,1.17
HMGCS1,1,1.03
PICALM,1,1.08
NPL,1,0.99
RNF31,1,1.01
TTC39C,1,0.78
SH3BP1,1,0.85
YJEFN3,1,1.02
GABARAPL2,1,1.09
ENOX1,1,1.04
CYP24A1,1,0.92
EIF2A,1,0.89
B3GALT1,1,1.04
CCNDBP1,1,0.99
CCDC27,1,0.92
KLK12,1,1.09
SUMF2,1,1.33
ACOX1,1,1.15
C10orf67,1,1.24
CGREF1,1,1.08
SLC2A9,1,1.19
ALDH2,1,0.82
TTI1,1,1.18
FGFBP1,1,1.16
DOP1A,1,1.12
UAP1,1,1
DEFB130A,1,1.13
ZNF823,1,1.23
RING1,1,0.91
ZNF189,1,1.15
ST8SIA3,1,0.82
PSG9,1,1.04
LRRTM2,1,1.08
ZNF711,1,0.81
ZP2,1,1.08
CD163L1,1,0.82
RPS16,1,1.55
HIVEP3,1,1.1
C19orf44,1,1.14
ARL2,1,0.92
CRIP3,1,0.88
CCL2,1,0.94
SYT15,1,1.29
LPAR5,1,0.81
PRKAR1A,1,0.97
XAB2,1,0.65
RABIF,1,1.18
PLA2G4F,1,1.26
SAXO2,1,0.87
SETBP1,1,1.37
POTEH,1,1.31
MT1B,1,1
OR1G1,1,1.11
SLC25A53,1,1.07
HNRNPC,1,1.38
MCM6,1,1.05
CCIN,1,1.04
EMILIN2,1,0.88
POU3F2,1,0.65
MRM3,1,1.06
ERCC6L2,1,0.88
ERCC6L2,2,1.21
PARK7,1,0.71
C1orf74,1,1.49
EMILIN1,1,0.71
LMTK2,1,1.07
FBXL13,1,0.81
KIF5B,1,1.09

A few values from above:
PLA2G4F, CDH1-null / parental viability ratio → 1.26
Entry of ZP2 under “CDH1-null / parental viability ratio”: 1.08
For “CDH1-null / parental viability ratio”, GABARAPL2 has 1.09
Under “CDH1-null / parental viability ratio”, KLK12 is entered as 1.09
For “CDH1-null / parental viability ratio”, DESI1 shows 1.17
Result of C10orf67 in “CDH1-null / parental viability ratio”: 1.24
